Source: publication doi:10.1101/2025.07.26.666928

Legend:
[1] = target: Ty:YFP:Ty:IC1 (Trypanosoma brucei) (UniProt Q385R8); assay: affinity purification with mass spectrometry
[2] = target: 3HA-BioID2-KTU (Trypanosoma brucei) (UniProt Q388W0); assay: proximity labelling
[3] = target: 3HA-BioID2-PIH1D1 (Trypanosoma brucei) (UniProt Q38DW7); assay: proximity labelling
[4] = target: 3HA-BioID2-PIH1D2 (Trypanosoma brucei); assay: proximity labelling
[5] = target: 3HA-BioID2-KTU (Trypanosoma brucei) (UniProt Q388W0); assay: proximity labelling; remark: listed apart in the source
[6] = target: 3HA-BioID2-PIH1D3 (Trypanosoma brucei) (UniProt Q580K1); assay: proximity labelling
[7] = target: 3HA-BioID2-PIH1D1 (Trypanosoma brucei) (UniProt Q38DW7); assay: proximity labelling; remark: listed apart in the source

Molecule: 1,2-Dihydroxy-3-keto-5-methylthiopentene dioxygenase (encoded by Tb927.4.360) (from UniProt Q57UT9) (enzyme)
- binding [1]: binds

Molecule: ODAα (from UniProt Q57WX6)
- binding [2]: no binding
- binding [3]: binds
- binding [1]: binds

Molecule: ODAβ (from UniProt Q386I6)
- binding [1]: binds

Molecule: ankyrin repeat-containing protein (encoded by Tb927.4.1170) (from UniProt Q580E5)
- binding [1]: binds

B1: EIF5A (protein, UniProt Q387H6 1-166)
chain: MSDDEGQFAEGGAQVGSLTYPMQAGALKKGGYICINGRPCKVIDLSVSKTGKHGHAKVSIVALDIFTGNKMEDQAPSTHNVEVPFVKTATYSVLDIQEDREDPSKPAHLSLMDDEGETRDNLDMPPNAELAGQIKEQFDAGKDVLVVVVSAMGIDQILSFKNAAER
- binding [4]: binds
- binding [5]: binds
- binding [6]: binds
- binding [7]: binds

Read-outs that look alike come from different tables or passages of the source. No constants are given. Whether binding was seen depends on the method and setting. Binding seen in cells or lysates may run through a third protein. These calls come from enrichment with a bait or labelling near it, and not all partners need be listed. For some of these results: No binding means not detected with the bait.
